# These are yes or no findings as the source states them, for the method shown. In cells and extracts the contact can be indirect. Some results given as binding are weak or reduced against the parent protein; the word gives no strength.
# Amino acid sequences for entries named in this document (tags omitted). Residues count along the entry.
# UniProt P49815: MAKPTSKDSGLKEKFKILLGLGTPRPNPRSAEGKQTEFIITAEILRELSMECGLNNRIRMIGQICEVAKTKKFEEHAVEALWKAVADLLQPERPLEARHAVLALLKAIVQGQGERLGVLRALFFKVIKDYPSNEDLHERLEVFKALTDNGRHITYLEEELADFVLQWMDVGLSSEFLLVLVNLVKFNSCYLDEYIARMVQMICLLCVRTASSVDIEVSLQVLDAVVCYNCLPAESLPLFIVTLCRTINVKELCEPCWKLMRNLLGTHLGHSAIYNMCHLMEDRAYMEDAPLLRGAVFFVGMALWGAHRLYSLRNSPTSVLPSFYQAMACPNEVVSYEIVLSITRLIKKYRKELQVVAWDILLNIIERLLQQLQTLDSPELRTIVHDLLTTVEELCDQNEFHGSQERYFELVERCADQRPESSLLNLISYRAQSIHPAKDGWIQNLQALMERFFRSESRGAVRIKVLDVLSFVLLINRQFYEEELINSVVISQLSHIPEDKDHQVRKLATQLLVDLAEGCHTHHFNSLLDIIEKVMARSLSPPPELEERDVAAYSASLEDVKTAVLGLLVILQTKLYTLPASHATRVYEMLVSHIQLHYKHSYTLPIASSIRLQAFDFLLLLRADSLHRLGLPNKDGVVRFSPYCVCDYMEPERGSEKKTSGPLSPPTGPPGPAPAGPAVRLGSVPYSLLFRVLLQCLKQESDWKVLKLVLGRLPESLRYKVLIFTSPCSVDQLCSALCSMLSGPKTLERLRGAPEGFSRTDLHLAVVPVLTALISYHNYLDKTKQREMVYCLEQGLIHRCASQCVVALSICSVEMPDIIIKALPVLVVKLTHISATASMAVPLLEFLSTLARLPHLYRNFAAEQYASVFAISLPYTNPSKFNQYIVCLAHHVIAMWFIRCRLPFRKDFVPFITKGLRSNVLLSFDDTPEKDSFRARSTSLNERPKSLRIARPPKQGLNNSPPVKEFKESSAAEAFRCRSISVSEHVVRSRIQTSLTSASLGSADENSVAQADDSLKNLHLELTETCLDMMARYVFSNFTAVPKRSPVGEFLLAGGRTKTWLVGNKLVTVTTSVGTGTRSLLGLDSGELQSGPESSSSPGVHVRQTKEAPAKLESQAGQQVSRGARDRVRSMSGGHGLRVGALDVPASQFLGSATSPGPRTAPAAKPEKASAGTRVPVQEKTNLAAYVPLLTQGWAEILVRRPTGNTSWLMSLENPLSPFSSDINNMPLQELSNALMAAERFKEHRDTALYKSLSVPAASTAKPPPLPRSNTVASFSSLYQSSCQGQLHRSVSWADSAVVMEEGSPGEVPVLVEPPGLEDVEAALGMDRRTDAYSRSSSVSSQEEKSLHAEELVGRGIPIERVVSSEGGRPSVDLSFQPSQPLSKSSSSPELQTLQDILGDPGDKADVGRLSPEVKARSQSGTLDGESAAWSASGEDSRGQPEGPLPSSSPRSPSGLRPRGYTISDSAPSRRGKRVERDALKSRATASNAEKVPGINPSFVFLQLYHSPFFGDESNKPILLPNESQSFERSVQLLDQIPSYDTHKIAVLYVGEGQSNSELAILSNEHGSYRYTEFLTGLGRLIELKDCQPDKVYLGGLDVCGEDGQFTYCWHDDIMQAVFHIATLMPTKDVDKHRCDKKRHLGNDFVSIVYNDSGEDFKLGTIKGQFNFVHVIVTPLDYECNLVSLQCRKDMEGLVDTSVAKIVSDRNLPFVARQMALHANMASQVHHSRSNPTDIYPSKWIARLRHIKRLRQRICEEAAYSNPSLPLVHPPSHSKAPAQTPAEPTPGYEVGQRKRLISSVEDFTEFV
# UniProt P98161, residues 4106-4303: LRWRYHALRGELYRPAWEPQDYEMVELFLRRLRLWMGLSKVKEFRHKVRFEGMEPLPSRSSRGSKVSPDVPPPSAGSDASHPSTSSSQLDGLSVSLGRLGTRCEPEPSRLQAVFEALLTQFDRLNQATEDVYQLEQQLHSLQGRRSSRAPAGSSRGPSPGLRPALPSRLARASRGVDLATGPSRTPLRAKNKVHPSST
# Biological target: tuberous sclerosis complex 2 (TSC2) tumor suppressor (human (endogenous in HEK-293)) (UniProt P49815)
# Assay: co-IP; lysates of transfected HEK-293 cells (expressing CD44-CP1 or Flag-CP1; Flag-TSC1 for the TSC1-TSC2 pair) incubated with anti-TSC2 or anti-TSC1 antibody and protein A and protein G Sepharose overnight at 4°C; washed with 10 mM Tris pH 7.5, 1% NP-40, 1% Triton X-100, 100 mM NaCl; immunoblot with E1/2, anti-Flag or anti-TSC2
row,binding,Substance
1,binds,"CD44-CP1 (C-terminal tail of human polycystin-1, aa 4106-4303, tagged with the extracellular and transmembrane region of CD44) (from UniProt P98161 4106-4303) (domain or fragment)"
2,binds,"Flag-CP1 (soluble C-terminal tail of human polycystin-1, aa 4106-4303) (from UniProt P98161 4106-4303) (domain or fragment)"

# — PMC2821926
